According to US20230040928A1 (INSERM INSTITUT NATIONAL DE LA SANTE ET DE LA RECHERCHE …, published 2023):
Residue numbers refer to the chain shown, from its start. These are yes or no findings as the source states them, for the method shown. Some entries that bind do so weakly or less than the wild type. For part of these data: Tags and fused reporters may be left off the sequences shown.

T1: mouse HER4-Fc (mouse) (UniProt Q61527)
T1 sequence (looked up): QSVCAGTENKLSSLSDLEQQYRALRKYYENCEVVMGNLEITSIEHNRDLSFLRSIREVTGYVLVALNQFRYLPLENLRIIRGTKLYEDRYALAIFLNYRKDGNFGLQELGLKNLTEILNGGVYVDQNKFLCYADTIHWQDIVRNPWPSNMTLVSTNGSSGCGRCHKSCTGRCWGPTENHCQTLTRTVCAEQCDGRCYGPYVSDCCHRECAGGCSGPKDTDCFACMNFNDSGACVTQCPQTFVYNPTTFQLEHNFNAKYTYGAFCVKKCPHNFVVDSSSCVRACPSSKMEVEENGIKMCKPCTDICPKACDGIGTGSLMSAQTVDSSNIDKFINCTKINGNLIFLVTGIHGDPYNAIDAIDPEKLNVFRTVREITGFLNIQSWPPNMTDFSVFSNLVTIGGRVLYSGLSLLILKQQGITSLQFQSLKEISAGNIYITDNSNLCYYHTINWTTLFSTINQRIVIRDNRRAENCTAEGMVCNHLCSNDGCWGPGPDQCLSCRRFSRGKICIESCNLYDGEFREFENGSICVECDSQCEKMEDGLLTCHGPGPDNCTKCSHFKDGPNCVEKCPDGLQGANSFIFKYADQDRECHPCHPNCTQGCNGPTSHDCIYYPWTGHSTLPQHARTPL

B1: C6 mAb (antibody, V domains shown)
VH: EVQLVESGGSLVKPGGSLRLSCAASGFTFSNYYMNWVRQAPGKGLEWISSISGSSRYIDYADFVKGRFTISRDNATNSLYLQMNSLRAEDTAVYYCVRSSSDYFGGGMDVWGRGTLVTVSS
VL: QSVLTQPASVSGSPGQSITISCAGTSSDVGGSYYVSWYQQHPGKAPKLMIYYDSYRPSGVSNRFSGSKSGNTASLTISGLQAEDEADYYCSSSTYNSTRVFGGGTKLAVLG
notes: also called antibody C6; Ab C6
B2: D5 mAb (antibody, V domains shown)
VH: B1 VH with S52D
VL: B1 VL with Y33S, S93N, N96Y
notes: also called antibody D5; anti-HER4 antibody D5
B3: F4 mAb (antibody, V domains shown)
VH: B1 VH with Y32N, Y33D, D59N, S101D
VL: B1 VL with S32Y, Y33S, Y34G, Y52N, S93Y, Y95N
notes: also called antibody F4
B4: H2 mAb (antibody, V domains shown)
VH: B1 VH with Y32N, Y33D, S50D, S52N, D59Y, S101D
VL: B1 VL with S32Y, Y34S, Y52N, N96Y
notes: also called antibody H2

What follows are binders tested against T1, mouse HER4-Fc (mouse) (assay: ELISA, mouse HER4-Fc coated, IgG in solution).

binding, binds:
B1, B2, B3, B4

What follows are binders tested against HER4 on C33A cervix carcinoma cells (human) (UniProt Q15303) (assay: flow cytometry, 15 µg/ml antibody on C33A cells).

binding, binds:
B1, B2, B3, B4

The binders below were run against HER4 on C33A cervix carcinoma cells (human) (UniProt Q15303) (assay: flow cytometry on C-33A cells in presence of NRG1).

binding, binds:
B1, B2, B3, B4
